Results reported in publication PMC5282575, “The crystal structure of the Sgt1-Skp1 complex: the link between Hsp90 and both SCF E3 ubiquitin ligases and kinetochores” (Scientific Reports, 2017).
Positions count from the first letter of the chain named. These are yes or no findings as the source states them, for the method shown. Where a sequence is shown, tags or fusion partners need not be part of it.

By UniProt entry, the sequences of proteins in these tests, tags left out.
UniProt P52286: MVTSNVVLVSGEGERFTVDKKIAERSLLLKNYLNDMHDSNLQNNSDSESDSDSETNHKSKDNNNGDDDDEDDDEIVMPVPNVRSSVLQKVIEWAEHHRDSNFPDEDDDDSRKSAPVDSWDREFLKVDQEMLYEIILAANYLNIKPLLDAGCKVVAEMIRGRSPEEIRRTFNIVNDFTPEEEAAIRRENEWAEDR

Tests used:
[1] = target: T1, His6-tagged full-length Sgt1 W127A (S. cerevisiae) (UniProt Q08446); experiment: pull-down; His-Sgt1 (9 nmoles) held on Ni Sepharose resin blocked with BSA, 20 nmoles Skp1 added for 1 h; 25 mM HEPES pH 7, 100 mM NaCl; both purified
T1 sequence: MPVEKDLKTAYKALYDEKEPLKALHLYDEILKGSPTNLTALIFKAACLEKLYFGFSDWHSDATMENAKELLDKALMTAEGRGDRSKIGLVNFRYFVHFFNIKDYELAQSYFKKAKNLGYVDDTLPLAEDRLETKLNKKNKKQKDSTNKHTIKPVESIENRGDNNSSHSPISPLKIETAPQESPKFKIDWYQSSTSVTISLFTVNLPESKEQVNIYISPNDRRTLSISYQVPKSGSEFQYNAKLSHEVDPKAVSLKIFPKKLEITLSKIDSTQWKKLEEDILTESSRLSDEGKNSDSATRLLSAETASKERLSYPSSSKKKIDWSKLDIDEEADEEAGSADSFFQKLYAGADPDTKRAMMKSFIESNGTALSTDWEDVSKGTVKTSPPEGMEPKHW

[2] = target: T2, His6-tagged full-length Sgt1 R93A (S. cerevisiae) (UniProt Q08446); experiment: as above
T2 sequence: T1 sequence with R93A, A127W

Substance: full-length Skp1 (untagged), Saccharomyces cerevisiae (from UniProt P52286 1-194)
- binding [1]: no binding (tested: 20 nmoles Skp1 on 9 nmoles His-Sgt1)
- binding [2]: no binding (tested: 20 nmoles Skp1 on 9 nmoles His-Sgt1)
